Experimental data: PubChem BioAssay AID1259275 (Sanger Institute, 2017)
Here is an unselected part of 794 deposited reagents. 13 of all reagents (1.6%) count as active. 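Calls mark knock-downs lethal by themselves, not drug synergy; drugs went in a day after transfection, with DMSO as vehicle.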 Viability is capped at 1. Not all columns of the deposit are shown. Reagent sequences are not shown. The record does not give: the amount of reagent, the time to read-out.

- Aim: 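Kinase and colorectal cancer genes needed for cancer cell survival, with or without drugs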 (primary screen)
- System: COLO320HSR human colorectal cancer cells
- Reagent: siRNA pool against human genes
- Conditions: anchor drug added one day after transfection: BYL719 at 1 µM, cetuximab at 5 µg/ml or trametinib at 10 nM; DMSO as vehicle arm
- Read-out: 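Viability averaged over replicates as a fraction of the non-targeting pool, a robust z-score for knock-down alone, and synergy scores with BYL719 (1 µM), cetuximab (5 µg/ml) or trametinib (10 nM)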
- Scale: robust z-score, siRNA alone: higher = more viable cells; strongly negative means essential; viability, knock-down alone (DMSO): higher = more viable cells; synergy score with BYL719: higher = stronger combined killing with drug
- Hit rule: 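Essential means the knock-down by itself gives a robust z-score lower than -3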
- Calls: active = essential (siRNA alone); inactive = no change (siRNA alone)

| Target gene | robust z-score, siRNA alone | viability, knock-down alone (DMSO) (fraction of control) | synergy score with BYL719 | activity call |
| --- | --- | --- | --- | --- |
| ULK3 | 0.726 | 1 | -0.155 | inactive |
| CAMK2N1 | -1.26 | 0.821 | 0.0286 | inactive |
| JAK1 | 0.726 | 1 | -0.158 | inactive |
| PAK2 | -0.696 | 0.872 | 0.00529 | inactive |
| EPHA1 | 0.726 | 1 | -0.0946 | inactive |
| PKMYT1 | -0.364 | 0.902 | -0.146 | inactive |
| STK4 | -0.181 | 0.918 | -0.153 | inactive |
| RPS6KA4 | -1.34 | 0.813 | -0.0623 | inactive |
| MED24 | 0.726 | 1 | -0.0863 | inactive |
| SF3B1 | -6.2 | 0.375 | -0.015 | active |
| PIK3R1 | 0.544 | 0.984 | -0.0931 | inactive |
| ACVR1B | -0.94 | 0.85 | -0.174 | inactive |
| MYO3B | 0.726 | 1 | -0.152 | inactive |
| MAP4K5 | -0.776 | 0.864 | -0.27 | inactive |
| IDH2 | 0.726 | 1 | 0.03 | inactive |
| DYRK3 | 0.655 | 0.994 | -0.00888 | inactive |
| NIM1K | 0.726 | 1 | -0.296 | inactive |
| PRKAR1B | -0.562 | 0.884 | -0.0314 | inactive |
| CASK | 0.266 | 0.958 | -0.0649 | inactive |
| EFNA5 | 0.452 | 0.975 | -0.0579 | inactive |
| COMMD3 | 0.582 | 0.987 | 0.0101 | inactive |
| WNK1 | -0.164 | 0.92 | -0.034 | inactive |
| TPD52L3 | 0.726 | 1 | -0.132 | inactive |
| PRKACB | 0.726 | 1 | -0.296 | inactive |
| TEK | -0.3 | 0.907 | -0.23 | inactive |
| CDK8 | 0.726 | 1 | -0.169 | inactive |
| PRKAG2 | 0.726 | 1 | -0.109 | inactive |
| PTGS1 | -0.165 | 0.92 | -0.043 | inactive |
| RPS6KA3 | 0.726 | 1 | -0.118 | inactive |
| TLK2 | 0.726 | 1 | -0.0752 | inactive |
| CHD9 | 0.422 | 0.973 | -0.169 | inactive |
| CAMKK1 | 0.726 | 1 | -0.22 | inactive |
| MAPK11 | 0.666 | 0.995 | 0.117 | inactive |
| NEK5 | 0.726 | 1 | -0.0369 | inactive |
| MAP4K1 | 0.726 | 1 | -0.0334 | inactive |
| PHKA1 | 0.726 | 1 | -0.13 | inactive |
| HUS1 | 0.726 | 1 | -0.282 | inactive |
| MAP4K2 | 0.398 | 0.97 | 0.0277 | inactive |
| PIP5K1C | 0.726 | 1 | -0.111 | inactive |
| LATS2 | 0.0538 | 0.939 | -0.0596 | inactive |
| MSR1 | 0.435 | 0.974 | -0.229 | inactive |
| SIK1 | -1.64 | 0.787 | -0.235 | inactive |
| MAPK6 | -0.282 | 0.909 | -0.0544 | inactive |
| DAPK1 | 0.726 | 1 | 0.04 | inactive |
| DCLK1 | 0.726 | 1 | -0.123 | inactive |
| SMC1A | -2.36 | 0.722 | 0.0242 | inactive |
| DYRK4 | 0.506 | 0.98 | -0.118 | inactive |
| NEK3 | -0.104 | 0.925 | 0.0061 | inactive |
| AGK | 0.726 | 1 | -0.222 | inactive |
| GOLGA5 | 0.165 | 0.949 | -0.0931 | inactive |

Reformatted: results already given.
JAK1
- robust z-score, siRNA alone: 0.726
- viability, knock-down alone (DMSO) (fraction of control): 1
- synergy score with BYL719: -0.158
- activity call: inactive

PAK2
- robust z-score, siRNA alone: -0.696
- viability, knock-down alone (DMSO) (fraction of control): 0.872
- synergy score with BYL719: 0.00529
- activity call: inactive

EPHA1
- robust z-score, siRNA alone: 0.726
- viability, knock-down alone (DMSO) (fraction of control): 1
- synergy score with BYL719: -0.0946
- activity call: inactive

PKMYT1
- robust z-score, siRNA alone: -0.364
- viability, knock-down alone (DMSO) (fraction of control): 0.902
- synergy score with BYL719: -0.146
- activity call: inactive

STK4
- robust z-score, siRNA alone: -0.181
- viability, knock-down alone (DMSO) (fraction of control): 0.918
- synergy score with BYL719: -0.153
- activity call: inactive

RPS6KA4
- robust z-score, siRNA alone: -1.34
- viability, knock-down alone (DMSO) (fraction of control): 0.813
- synergy score with BYL719: -0.0623
- activity call: inactive

MED24
- robust z-score, siRNA alone: 0.726
- viability, knock-down alone (DMSO) (fraction of control): 1
- synergy score with BYL719: -0.0863
- activity call: inactive
